This note sets out measurements from PMC9605959, “GABAA receptor function is enhanced by Interleukin-10 in human epileptogenic gangliogliomas and its effect is counteracted by Interleukin-1β” (Scientific Reports, 2022).

This assay has as its system T1, GABAA receptors of ganglioglioma (GG) tissue (microtransplanted human brain membranes).
T1 construct: gene GABRA1
The note with it: before IL-10; agonist; nH 1.5 ± 0.1; pH 7.4, 20-22 °C; GG patients # 8-10; n = 16.

A word on the EC50: it is the concentration giving half of the maximal effect. Low values mean a more potent agent, high ones a less potent agent.

Regarding `NCCCC(=O)O` [GABA], the midpoint of the response, the EC50, lay at 106 ± 1.5 µM.
